Measurements published in the supplement of paper PMC3334620.
Whole data set: some 33,000 sequences, median “E-score (-0.5 to 0.5)” near -0.015, cut for the highest 2% near 0.3. The list shows a part of the results.

Molecular target: T1, Abf1 (UniProt P14164)
T1 sequence: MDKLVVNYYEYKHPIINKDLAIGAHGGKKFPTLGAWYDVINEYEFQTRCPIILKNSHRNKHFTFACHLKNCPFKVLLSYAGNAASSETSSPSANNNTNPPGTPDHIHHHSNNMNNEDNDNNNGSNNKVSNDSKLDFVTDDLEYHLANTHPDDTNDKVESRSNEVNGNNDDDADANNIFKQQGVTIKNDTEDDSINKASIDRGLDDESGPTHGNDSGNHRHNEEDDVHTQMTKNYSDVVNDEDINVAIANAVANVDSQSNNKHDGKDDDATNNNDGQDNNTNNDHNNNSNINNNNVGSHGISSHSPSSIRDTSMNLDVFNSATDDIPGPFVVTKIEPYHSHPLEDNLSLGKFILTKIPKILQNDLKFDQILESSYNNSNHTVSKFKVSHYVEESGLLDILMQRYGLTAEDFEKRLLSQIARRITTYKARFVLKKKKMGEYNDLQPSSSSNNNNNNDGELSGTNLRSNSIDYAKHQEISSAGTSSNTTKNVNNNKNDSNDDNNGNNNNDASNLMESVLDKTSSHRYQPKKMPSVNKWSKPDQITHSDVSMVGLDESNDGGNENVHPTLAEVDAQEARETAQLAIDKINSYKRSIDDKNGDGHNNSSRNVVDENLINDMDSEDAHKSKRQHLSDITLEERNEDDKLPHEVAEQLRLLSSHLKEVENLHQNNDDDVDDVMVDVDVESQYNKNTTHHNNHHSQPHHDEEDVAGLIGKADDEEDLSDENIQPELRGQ
Assay: PBM E-score (8-mer binding enrichment) (E-score (-0.5 to 0.5)); higher = stronger / more preferred TF binding
Conditions: protein concentration: 200 nM; construct: GST-full length
Method: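 Universal 'all 10-mer' protein binding microarrays (Agilent AMADID 015681) probed with GST-tagged S. cerevisiae TFs (full-length or DBD) made by in vitro transcription/translation (PURExpress), about 100-200 nM. Bound TF was detected with fluorescent anti-GST. Each ungapped 8-mer (which stands for itself and its reverse complement) is scored by the PBM enrichment score (E-score), a modified Wilcoxon-Mann-Whitney statistic from -0.5 to +0.5, computed with the Universal PBM Analysis Suite. Scale: above 0.35 generally sequence-specific binding.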

Row | Sequence | PBM E-score
1 | AACCGCCT | -0.101
2 | GCGCCCCA | -0.155
3 | AACAGCTC | -0.292
4 | AGGAAATG | 0.0706
5 | TAAGTAAA | 0.0817
6 | ATTTTGAG | 0.192
7 | CGGTCACC | 0.166
8 | AGCGGGCA | -0.22
9 | CAGTTGCG | -0.0457
10 | AAGCTAAA | -0.0592
11 | ACAGTTTG | -0.0118
12 | AATCCACC | -0.0574
13 | ACACTGGT | -0.0409
14 | ATAACGTG | 0.203
15 | CCGTACAA | 0.432
16 | CGAGCCAG | 0.101
17 | AGCCTATC | -0.0675
18 | CAAGCCAG | -0.132
19 | CAAATGGA | -0.0896
20 | ACTGTACG | 0.123
21 | ACCCCGGG | -0.0061
22 | ATTATCGG | 0.0733
23 | GGGAGTCA | -0.245
24 | GCTCCATA | -0.193
25 | CGTGCTCC | -0.0862

Row | Sequence | PBM E-score
26 | ACCCCATG | -0.0419
27 | CTGCAAGA | -0.0282
28 | ATAACCAT | 0.0871
29 | GACAGAAC | 0.0672
30 | GACTCTCC | -0.0969
31 | AAATCCGT | 0.0895
32 | GACTGACA | 0.105
33 | TTCCGGAA | -0.106
34 | CAAAGAAA | 0.11
35 | ACCTTGCG | -0.0227
36 | CTACCGGC | -0.224
37 | AGAGTCCA | -0.101
38 | ATTCGGTG | -0.0175
39 | AAGCTACT | 0.0421
40 | ACCTACCG | -0.126
41 | CGCTGAAG | -0.0468
42 | ACGTGCAG | 0.0588
43 | GTTATGAA | 0.0974
44 | CAATTGAA | 0.0172
45 | CCGTTGCA | 0.021
46 | CTGGATGC | -0.0926
47 | GAGTCATC | 0.18
48 | AACTCCTT | 0.0135
49 | ATGAAGGA | 0.111
50 | ATCAATTG | 0.0641

Row | Sequence | PBM E-score
51 | GCCACCCA | -0.336
52 | ACCTCGCG | 0.0902
53 | CTCTTTGA | -0.148
54 | AGCGTCAG | -0.0296
55 | ACTTCGTA | 0.297
56 | CCTGATGA | 0.139
57 | AAGAATCG | 0.189
58 | GACAACGC | 0.0391
59 | ACTTACCC | 0.0246
60 | GGGGATGA | 0.114
61 | AAGTGAGC | 0.0982
62 | TAAGCCGA | 0.0917
63 | CCCACACA | -0.113
64 | ACGACCTG | 0.0542
65 | ACTACCTC | -0.117
66 | GTAAGCTA | 0.146
67 | ATAAACCC | 0.079
68 | CAAACAAC | 0.0993
69 | ACTTCTGA | -0.0108
70 | AAATTGTA | 0.184
71 | TAGTAACA | 0.233
72 | CAGCCGTC | 0.0544
73 | AATGCCTC | -0.0892
74 | ATTGTATG | 0.109
75 | CGCTATTC | -0.00249

Row | Sequence | PBM E-score
76 | GCAGCTTA | -0.195
77 | ACGAGTTA | 0.157
78 | CCCCAAGA | -0.0818
79 | GTCTAGAC | 0.00361
80 | ATACCGCC | -0.12
81 | GTCTTGTA | -0.191
82 | ATCTGGCC | -0.183
83 | TAATTGCA | 0.0292
84 | TAATGGTA | 0.0646
85 | CCTCCCAC | -0.188
86 | ACCAAATC | -0.0649
87 | AGATTACC | -0.0321
88 | CTTCGGCA | -0.0117
89 | AGGTTCTC | -0.152
90 | GTAAGTAC | 0.116
91 | CTTATGCA | 0.142
92 | AGCACGAA | 0.217
93 | GCCTGCTA | -0.1
94 | AGTGAGGC | -0.0618
95 | CCACCCAC | -0.0376
96 | TACTGCGA | -0.0871
97 | CACGGACA | 0.162
98 | ATTCATTC | 0.125
99 | CATTTTAC | 0.154
100 | AGGCCCCT | -0.24

Row | Sequence | PBM E-score
101 | TCAAACGA | 0.27
102 | GACATATA | 0.185
103 | CTCCATGA | -0.00266
104 | AAGCGTAA | -0.149
105 | AGCCATAA | 0.0101
106 | AGACATCC | 0.0489
107 | GAGACTTA | -0.00783
108 | CCGGAGGC | -0.269
109 | CTCTCACA | -0.0457
110 | CGTTACTA | 0.132
111 | AGTCACGA | 0.29
112 | AAGTCAAT | 0.0303
113 | ATTATCCG | 0.0891
114 | ATTCCTAC | -0.0909
115 | CTGTGAGA | -0.158
116 | AAGCGCTC | 0.0273
117 | GTGTGCCA | -0.0917
118 | AAGACCGA | -0.116
119 | AGCGCTAT | 0.0813
120 | CCGGGTTA | -0.16
121 | AGAACTCG | 0.225
122 | CAGGTTTC | -0.014
123 | GCAGTTCA | 0.014
124 | CGTTCTGA | 0.0984
125 | GGTCGGGA | -0.18

Some of the entries so far, with tabs.
Row	Sequence	PBM E-score
115	CTGTGAGA	-0.158
116	AAGCGCTC	0.0273
117	GTGTGCCA	-0.0917

Additional results

Row | Sequence | PBM E-score
126 | CTCATTCC | -0.0576
127 | ACATACCA | -0.0707
128 | CCGGATCG | -0.245
129 | ACGTAACT | 0.112
130 | AACGTTAT | -0.00236
131 | ATTGCGGG | -0.154
132 | AGAGCAAC | -0.253
133 | AGTATTTG | 0.0658
134 | GATGACGC | 0.116
135 | CGGCAATC | 0.113
136 | GAAAGACA | 0.0333
137 | CGCATGGC | -0.102
138 | ATGAAGCA | -0.0574
139 | ACTTTGAC | 0.186
140 | TAGTCCCA | -0.0515
141 | ACTAGAAA | -0.0186
142 | AACCCAAC | 0.176
143 | GATTCCTA | -0.0961
144 | AGAGATGA | 0.0238
145 | AGCAGAAA | -0.00835
146 | ATGCTCAG | -0.162
147 | CATTAGCG | 0.0236
148 | AGCGCATG | -0.103
149 | CTCAATAC | 0.13
150 | GTTCATGA | 0.109

Exported tab-delimited: part of the list above
Row	Sequence	PBM E-score
77	ACGAGTTA	0.157
78	CCCCAAGA	-0.0818

Reformatted as tab-separated lines: part of the list above
Row	Sequence	PBM E-score
133	AGTATTTG	0.0658
134	GATGACGC	0.116
135	CGGCAATC	0.113
136	GAAAGACA	0.0333
137	CGCATGGC	-0.102
138	ATGAAGCA	-0.0574
139	ACTTTGAC	0.186

Next results

Row | Sequence | PBM E-score
151 | AACCAGCG | -0.0976
152 | AGGGATAC | -0.0698
153 | CATTTTGC | 0.154
154 | CATCAACC | 0.142
155 | GGTCAACA | 0.0495
156 | ACAAACAC | -0.00556
157 | GTTGCTGA | 0.0212
158 | CCTTTTCC | -0.118
159 | TACGAGCA | 0.0778
160 | CGCTACCA | -0.0507
161 | AAACGAAC | 0.191
162 | GGAGATGA | 0.16
163 | GGTGATGA | 0.34
164 | CAACACCA | 0.104
165 | CTTCATTA | -0.0209
166 | ATATTCTA | 0.114
167 | CTACTTCC | -0.0498
168 | TAGTGATA | 0.433
169 | CGAGGTAC | 0.0949
170 | AAATGGGC | -0.177
171 | GGACCAAC | -0.232
172 | CGACATGA | 0.236
